The values that follow come from US7659244B2 (Quest Pharmatech, Inc., priority 2004, dated 2010).

The data set can be described thus: general procedure: solution-phase peptide synthesis; DCC/HOBt. The settings on record: conjugation step.

“Rapamycin-42-O-ester-(NH-D-Ala-D-Leu-L-Ile-S-Phe-CH2OH)”: the conjugation yield stood at 11%.
“Rapamycin-42-O-ester-(NH-L-Ala-L-Leu-L-Ile-D-Phe-CH2OH)” came in with a conjugation yield of 10%.
